Assay results taken from paper PMC8497054.
These are yes or no findings as the source states them, for the method shown. For some assays here: Binding calls can cover weak binding; strength is not graded here. Where a sequence is shown, tags or fusion partners need not be part of it.

Legend:
[1] = target: TOC159 G-domain (pGBKT7-TOC159G, BD fusion) (Arabidopsis thaliana); assay: two-hybrid; TOC159G or TOC159M as BD baits (pGBKT7), SUMO1, SUMO2, SUMO3 as AD preys (pGADT7), yeast strain Y2H GOLD; growth on SD -Leu -Trp and SD -Leu -Trp -His
[2] = target: TOC159 M-domain (pGBKT7-TOC159M, BD fusion) (Arabidopsis thaliana); assay: as above

binding [1]: binds
binding [2]: no binding
B1: SUMO3 (pGADT7-SUMO3, AD fusion) (protein, UniProt Q9FLP5 1-111)
chain: MSNPQDDKPIDQEQEAHVILKVKSQDGDEVLFKNKKSAPLKKLMYVYCDRRGLKLDAFAFIFNGARIGGLETPDELDMEDGDVIDACRAMSGGLRANQRQWSYMLFDHNGL
